One experiment relates to HEK293T. Kind of experiment: percent viability (nuclei count) relative to control; higher = more viable cells. The settings on record: 10 µM; 24 h.
For experiment [1], the system named is SARS-CoV-2 -1 PRF reporter mCherry-FSE-GFP(-1). Kind of experiment: mCherry (red) intensity as percent of control; higher = higher upstream reporter expression. To be noted: 10 µM; 24 h; HEK293T.
The test system is the same in experiment [2]. Kind of experiment: percent effect, decrease of GFP/mCherry ratio (-1 PRF reporter) relative to controls; higher = stronger frameshift inhibition. To be noted: 10 µM; 24 h; HEK293T.

Each structure is given as a SMILES string. Several values for one entry are separate records, joined by “and”; a condition that tells them apart may be missing. Identical values can stand only once. Some of the results follow. Single values are uncertain here, since repeats match poorly.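 HEK293T cells were given each compound shortly before transfection with a reporter in which red mCherry is followed by the SARS-CoV-2 frameshift element and then GFP in the −1 frame, so GFP appears only after frameshifting.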

In the case of `C[C@@H]1CC[C@H]2[C@@H](C)C(=O)O[C@@H]3O[C@@]4(C)CC[C@@H]1[C@]32OO4` [artemisinin], in the experiment on HEK293T, the percent viability turned out to be 183%. Further, the mCherry in experiment [1] came out at 103%. Moreover, in experiment [2], the percent effect is -0.457%.
On to `COc1cccc(C2(O)CCCCC2CN(C)C)c1` (stereo unspecified), for which, in the experiment on HEK293T, the percent viability is 294%. For the same molecule, the mCherry in experiment [1] came out at 83.8%. Besides, the percent effect in experiment [2] was -3.19%.
As to `Cc1nnc2n1-c1sc(CCC(=O)N3CCOCC3)cc1C(c1ccccc1Cl)=NC2` [apafant], the percent viability with HEK293T worked out at 162%. In experiment [1], this molecule returned a mCherry of 78.9%. Further, in experiment [2], the percent effect was -1.08%.
For the molecule `CN1C(=O)CN=C(c2ccccc2F)c2cc([N+](=O)[O-])ccc21` [flunitrazepam], the percent viability in the experiment on HEK293T came to 319%. Besides, the mCherry in experiment [1] stood at 102%. Also, the percent effect in experiment [2] is -4.15%.
Taken in the same sequence, the figures for `CCCCC1C(=O)NC(=O)N(C2CCCCC2)C1=O` (stereo unspecified) [bucolome] were 158%, 85% and -2.9%.
On to `C=CCN1CC[C@]23CCCC[C@H]2[C@H]1Cc1ccc(O)cc13` [Lorfan], for which the percent viability in the experiment with HEK293T is 228%. This molecule also registered a mCherry in experiment [1] of 106%. In addition, the percent effect in experiment [2] was -0.715%.
For the molecule `C=C(C)[C@H]1CN[C@H](C(=O)O)[C@H]1CC(=O)O`, the percent viability with HEK293T worked out at 170%. The molecule also came in with a mCherry in experiment [1] of 121%. In addition, the percent effect in experiment [2] was found to be 2.73%.
The matching figures for `NCC(CC(=O)O)c1ccc(Cl)cc1` (stereo unspecified) [baclofen]: 281%, 79.7% and 0.71%.
Take `CCC[C@@H]1CC(=O)N([C@@H](CC)C(N)=O)C1` [brivaracetam]: the percent viability in the experiment on HEK293T was 146%. This molecule returned a mCherry in experiment [1] of 80%. The percent effect in experiment [2] is -3.5%.
The matching figures for `CC(C)NCC(O)c1cccc(O)c1` (stereo unspecified) [metaterol]: 325%, 63.3% and -0.109%.
For `CC(C)(N)CC12CC3CC(CC(C3)C1)C2` [somantadine], the percent viability in the experiment on HEK293T was 181%. Besides, the mCherry in experiment [1] is 80.4%. Besides, in experiment [2], the percent effect was -0.592%.
The matching figures for `O=C1CN=C(c2ccccc2)c2cc([N+](=O)[O-])ccc2N1` [nitrazepam]: 275%, 99.9% and -3.04%.
The matching figures for `CCN(CC)C(=O)N[C@H]1C=C2c3cccc4[nH]cc(c34)C[C@H]2N(C)C1` [lisuride]: 280%, 114% and -7.93%.
In the case of `CN1[C@@H]2C[C@@H](OC(=O)[C@H](CO)c3ccccc3)C[C@H]1[C@@H]1O[C@@H]12` [Scopolamine], the percent viability in the experiment with HEK293T is 254%. The same molecule gave a mCherry in experiment [1] of 95.9%. In experiment [2], the percent effect is 7.62%.
The matching figures for `CCCCCCCCC(=O)NCc1ccc(O)c(OC)c1` [nonivamide]: 420%, 97% and -7.39%.
Taken in the same sequence, the figures for `Oc1ccc2c3c1O[C@H]1[C@@H](O)CC[C@@]4(O)[C@@H](C2)N(CC2CCC2)CC[C@]314` [Nalbuphine] were 193%, 102% and 2.52%.
Regarding `CN(C)[C@@H]1C(=O)C(C(N)=O)=C(O)[C@@]2(O)C(=O)C3=C(O)c4c(O)cccc4[C@@](C)(O)[C@H]3C[C@@H]12` [Tetracycline], the percent viability in the experiment on HEK293T was 211% and 100%. Moreover, the mCherry in experiment [1] is 85.6% and 63.4%. Also, the percent effect in experiment [2] was -7.75% and 0.79%.

Source of the values: the supplement of paper PMC8256030.
